Among all 330,000 compounds or so, about 7,700 (2.3%) were called active. The inconclusive results got no clear call from the source; some entries with a clear call stand among them for comparison. Calls come from the whole dose curve; as a rule, active = well fitted inhibition curve with a large enough effect; inconclusive = small, poorly fitted or top-dose-only effect, or effect the other way; inactive = flat fitted curve, though single readings scatter. Potencies beside an inconclusive call are fits to weak or partial responses and may not hold up.
Assay: qHTS screen for small molecules that inhibit ELG1-dependent DNA repair in human embryonic kidney (HEK293T) cells expressing luciferase-tagged ELG1; note: nearly all actives have a fitted effect of over 55% in size
Settings: HEK293T ELG1-luciferase reporter, luminescence, 16 h, DNA damage induced by 5-fluorouridine; series mostly up to 46.1 µM
How it was run: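 Reporter activity after DNA damage by 5-fluorouridine is monitored. Compound-treated cells incubate 16 hr at 37 °C, then ONE-Glo is added for 30 min before luminescence reading.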
Potency is the fitted concentration of half-maximal effect.

Row | SMILES | Potency
1 | COc1ccc(OCC(=O)C2CC2)c(C#N)c1 | inconclusive: 16.4 µM [activator, partial curve]
2 | O=C1CS/C(=N/N=C/c2ccccc2OS(=O)(=O)c2ccccc2)N1 | inactive
3 | CCc1nc(N=Nc2c(O)[nH]c3ccccc23)c2c3c(sc2n1)CCC3 | inactive
4 | Cc1ccc(NC(=O)Cn2c(=O)cnc3ccccc32)cc1S(=O)(=O)N1CCCCC1 | inconclusive: 20.6 µM [inhibitor, single point]
5 | Cc1[nH]nc2nc(SCC(=O)NC3CCCCC3)n(-c3ccc(Br)cc3)c(=N)c12 | inconclusive: 20.6 µM [activator, single point]
6 | CCCCOc1ccc(C(=O)N=c2sccn2C)cc1OC | inconclusive: 10.3 µM [activator, partial curve]
7 | Cc1ccc(C(=O)NNC(=O)CSc2nnc(C(C)C)n2C)cc1 | inactive
8 | CC(C)c1ccccc1NC(=S)N(C)C | inconclusive: 3.26 µM [inhibitor, single point]
9 | Cc1cc(C)n2nc(C(=O)OCC(=O)Nc3ccc4c(c3)OCO4)nc2n1 | inconclusive: 20.6 µM [activator, partial curve, poor fit]
10 | CC(=O)c1ccc(N2CCN(S(=O)(=O)c3c(C(=O)N4CCCCC4)c(C)n(C)c3C)CC2)cc1 | inconclusive: 18.3 µM [activator, single point]
11 | CC(=O)NC1=NC(=O)/C(=C/c2cn(C(C)=O)nc2-c2ccccc2)S1 | active: 20.6 µM
12 | NS(=O)(=O)c1ccc(CCNc2nc3c(-c4cccc(F)c4)nnn3c3ccccc23)cc1 | active: 2.59 µM
13 | COc1ccc(CC(=O)NNC(=O)COc2ccc(F)cc2)cc1S(=O)(=O)N1CCOCC1 | inactive
14 | Cc1ccc(S(=O)(=O)n2ccc3c(OCCOCCSCC(NC(=O)OC(C)(C)C)C(=O)O)cccc32)cc1 (stereo not given) | inconclusive: 14.6 µM [inhibitor, partial curve]
15 | O=C(NCCSc1ccc(Cl)cc1)c1ccc(CN2CCOCC2)cc1 | inconclusive: 18.3 µM [inhibitor, single point]
16 | CCOC(=O)C1CCCN(CC(=O)NC2=Nc3ccccc3N=C(C)C2c2ccccc2)C1 (stereo not given) | inconclusive: 20.6 µM [inhibitor, single point]
17 | COc1ccc(OC)c(Nc2nc(-c3ccncc3)nc3ccccc23)c1 | inconclusive: 16.4 µM [inhibitor, single point]
18 | CCc1nc(N2CCN(C(C)=O)CC2)c2c3c(sc2n1)CCCC3 | inconclusive: 16.4 µM [inhibitor, single point]
19 | N#Cc1ccc(/C=C\c2nccc3c2[nH]c2ccccc23)cc1 | inconclusive: 29.1 µM [activator, single point]
20 | N#CCCN(C(=O)CSc1ccc2c(c1)OCCO2)c1ccccc1 | inactive
21 | C[C@@H](C(=O)NCc1ccccc1)[C@@H]1C[C@@]1(C)[C@@H](NC(=O)OCc1ccccc1)c1ccccc1 | inconclusive: 23.1 µM [inhibitor, single point]
22 | CC(C(=O)OCC(=O)c1ccc([N+](=O)[O-])cc1)N1C(=O)C2C3C=CC(C3)C2C1=O (stereo not given) | inactive
23 | COc1cccc(COc2cc3ccccc3nc2C)c1 | inconclusive: 29.1 µM [activator, single point]
24 | CN(C)NC(=S)Nc1cccc(Cl)c1 | inactive

Row | SMILES | Potency
25 | CN(Cc1c(F)cccc1Cl)C(=O)C1=CC=CN2CCS(=O)(=O)N=C12 | inconclusive: 16.4 µM [activator, single point]
26 | Cc1sc(NC(=O)c2sc3nc4c(C)cccc4cc3c2N)c(C#N)c1C | inconclusive: 2 µM [activator, partial curve, poor fit]
27 | COc1cc([N+](=O)[O-])cc2sc(NC(=O)c3c(F)cccc3F)nc12 | inconclusive: 25.9 µM [inhibitor, single point]
28 | COc1cccc(NC(=S)/C(=C(\[O-])c2ccc(C)c([N+](=O)[O-])c2)[n+]2ccccc2)c1 | inconclusive: 23.1 µM [activator, single point]
29 | COc1ccc(NC(=O)c2ccco2)cc1NC(=O)c1cccc(OC(C)C)c1 | inconclusive: 18.4 µM [inhibitor, single point]
30 | Fc1ccccc1-c1csc(=Nc2cccnc2)n1CCCn1ccnc1 | active: 10.3 µM
31 | CCOc1ccc(S(=O)(=O)n2nnc3ccccc32)cc1C | inactive
32 | COc1ccc(CNC(=O)CS(=O)CC(=O)O)cc1OC (stereo not given) | inconclusive: 6.51 µM [activator, single point]
33 | Cn1cc(S(=O)(=O)c2ccccc2)n(C)c1=O | inconclusive: 14.6 µM [activator, partial curve, poor fit]
34 | COc1ccc(CNCCC2(Cc3ccccc3)CC(C)N(C)CC2C)cc1OC (stereo not given) | inactive
35 | COc1ccc(-c2cc(C(F)(F)F)nc(SCCC(=O)N3CCN4CCCC4C3)n2)cc1 (stereo not given) | inconclusive: 18.4 µM [inhibitor, partial curve]
36 | O=C(NCCc1c[nH]c2ccccc12)C(=O)NCC1OCCCN1S(=O)(=O)c1cc(F)ccc1F (stereo not given) | active: 20.6 µM
37 | COc1cc(NC(=O)c2cc([N+](=O)[O-])ccc2NC(=O)CNC2CCCCC2)cc(OC)c1 | active: 20.6 µM
38 | C/C=C/C(=O)Nc1nnc(C2CCCCC2)s1 | inactive
39 | Cc1cccc(CS(=O)(=O)Cc2ccc(C(=O)NCCN3CCCCC3C)o2)c1 (stereo not given) | inactive
40 | Cc1ccc2nsnc2c1NC(=O)c1ccc([N+](=O)[O-])cc1 | active: 16.4 µM
41 | CCOC(=O)c1c(C)c(C)n(Cc2ccc(OC)c(OC)c2)c1C | inactive
42 | Cc1ccccc1N=C(NOCc1ccc(Cl)cc1Cl)c1nonc1N | inconclusive: 29.1 µM [inhibitor, single point]
43 | CCOC(=O)C(=O)Nc1ccc(Oc2ccccc2)cc1 | inactive
44 | Cc1cc(C(=O)CN2C(=O)NC3(CCCc4sccc43)C2=O)c(C)n1-c1ccccc1 (stereo not given) | inconclusive: 29.1 µM [inhibitor, partial curve, poor fit]
45 | O=C1CCCc2nc(N3CCN(C(c4ccccc4)c4ccccc4)CC3)ncc21 | inconclusive: 29.1 µM [inhibitor, single point]
46 | O=C(CNC(=O)c1ccccc1F)N/N=C/c1cccnc1 | inconclusive: 16.4 µM [activator, partial curve]
47 | CCOc1ccccc1NC(=O)CCCCCN1C(=O)[C@@H]2Cc3ccccc3CN2C1=O | inconclusive: 13 µM [inhibitor, partial curve, poor fit]
48 | CCc1cc(C(=O)NCC(c2ccc(OC)cc2)N2CCOCC2)sc1C (stereo not given) | inactive

Compounds 45 through 46 from above:
Row | SMILES | Potency
45 | O=C1CCCc2nc(N3CCN(C(c4ccccc4)c4ccccc4)CC3)ncc21 | inconclusive: 29.1 µM [inhibitor, single point]
46 | O=C(CNC(=O)c1ccccc1F)N/N=C/c1cccnc1 | inconclusive: 16.4 µM [activator, partial curve]

Remaining list, next part:

Row | SMILES | Potency
49 | CN(CCCNC(=O)COc1cc(=O)n(C)c2ccccc12)Cc1ccccc1 | inconclusive: 18.4 µM [activator, single point]
50 | CC(C)c1nc2cc(C(=O)N3CCN(c4cnccn4)CC3)ccc2o1 | inconclusive: 16.4 µM [activator, partial curve, poor fit]
51 | O=C(CSc1ccccc1)NC1CCCCCC1 | inconclusive: 20.6 µM [activator, partial curve, poor fit]
52 | N#C/C(=C\c1ccc(N2CCCCC2)o1)C(=O)Nc1cccc(Br)c1 | inconclusive: 3.26 µM [activator, full curve]
53 | O=C(O)c1cccc(-n2cccc2/C=N/O)c1 | inactive
54 | COc1ccc(CCn2c(=S)[nH]c3cc(C(=O)N4CCOCC4)ccc3c2=O)cc1OC | inconclusive: 29.1 µM [inhibitor, single point]
55 | Cc1c(C(=O)NC2CCOC2)oc2c(F)cccc12 (stereo not given) | inconclusive: 23.1 µM [activator, partial curve]
56 | CNc1ccccc1C(C)(C)c1cc(-c2cccc([N+](=O)[O-])c2)no1 | active: 1.46 µM
57 | CSCCC(N=C1NS(=O)(=O)c2ccccc21)C(=O)NCCc1ccccc1 (stereo not given) | inconclusive: 10.3 µM [activator, partial curve, poor fit]
58 | Cc1ccc(OCCN2CCN(CC(O)Cn3c4ccccc4c4ccccc43)CC2)cc1 (stereo not given) | inactive
59 | COc1ccc(C(=O)OC(C)C(=O)NC(C)CCc2ccccc2)c(OC)c1 (stereo not given) | inconclusive: 29.1 µM [inhibitor, single point]
60 | O=C(NCc1cccnc1)c1cc(-c2ccccc2)on1 | inconclusive: 25.9 µM [activator, single point]
61 | CCN=C(Nc1ccc2c(c1)OCO2)SC1CC(=O)N(c2ccccc2F)C1=O (stereo not given) | inactive
62 | CCOC(=O)C1CCCN(C(=S)Nc2ccc(S(=O)(=O)N3CCOCC3)cc2)C1 (stereo not given) | inconclusive: 23.1 µM [inhibitor, partial curve]
63 | COc1ccc(/C=C2/C(=O)N(c3ccccc3)N=C2C)cc1Br | inconclusive: 29.1 µM [activator, single point]
64 | O=C1COc2ccc(C(=O)COC(=O)c3ccccc3Cl)cc2N1 | inactive
65 | O=C(Nc1ccc(Cl)c(Cl)c1)c1cccc(S(=O)(=O)NCc2cccnc2)c1 | inconclusive: 10.3 µM [inhibitor, partial curve]
66 | O=C(Cc1c(F)cccc1Cl)NCC(=O)OCc1ccccc1 | inconclusive: 20.6 µM [activator, single point]
67 | Cc1ccccc1Nc1nnc(SCC(=O)NCc2ccco2)s1 | inactive
68 | CCCCC(O)(CCCC)C(=O)NN(C(=O)OC)c1ccc(C)cc1 | inconclusive: 18.3 µM [inhibitor, single point]
69 | Cc1ccc(N=C(NO)c2nonc2N)cc1 | inconclusive: 14.6 µM [activator, single point]
70 | COc1cccc(CC(=O)Nn2c(C)nc3ccccc3c2=O)c1 | inconclusive: 3.66 µM [activator, partial curve, poor fit]

3 compounds drawn at random from those above:
Row | SMILES | Potency
67 | Cc1ccccc1Nc1nnc(SCC(=O)NCc2ccco2)s1 | inactive
40 | Cc1ccc2nsnc2c1NC(=O)c1ccc([N+](=O)[O-])cc1 | active: 16.4 µM
41 | CCOC(=O)c1c(C)c(C)n(Cc2ccc(OC)c(OC)c2)c1C | inactive
